The source of these data is paper PMC6925144, “A prospective compound screening contest identified broader inhibitors for Sirtuin 1” (Scientific Reports, 2019).

Chains of the proteins cited; added tags and fusions are not shown. Residues count along the entry.
UniProt Q96EB6, 2-747 limits assumed: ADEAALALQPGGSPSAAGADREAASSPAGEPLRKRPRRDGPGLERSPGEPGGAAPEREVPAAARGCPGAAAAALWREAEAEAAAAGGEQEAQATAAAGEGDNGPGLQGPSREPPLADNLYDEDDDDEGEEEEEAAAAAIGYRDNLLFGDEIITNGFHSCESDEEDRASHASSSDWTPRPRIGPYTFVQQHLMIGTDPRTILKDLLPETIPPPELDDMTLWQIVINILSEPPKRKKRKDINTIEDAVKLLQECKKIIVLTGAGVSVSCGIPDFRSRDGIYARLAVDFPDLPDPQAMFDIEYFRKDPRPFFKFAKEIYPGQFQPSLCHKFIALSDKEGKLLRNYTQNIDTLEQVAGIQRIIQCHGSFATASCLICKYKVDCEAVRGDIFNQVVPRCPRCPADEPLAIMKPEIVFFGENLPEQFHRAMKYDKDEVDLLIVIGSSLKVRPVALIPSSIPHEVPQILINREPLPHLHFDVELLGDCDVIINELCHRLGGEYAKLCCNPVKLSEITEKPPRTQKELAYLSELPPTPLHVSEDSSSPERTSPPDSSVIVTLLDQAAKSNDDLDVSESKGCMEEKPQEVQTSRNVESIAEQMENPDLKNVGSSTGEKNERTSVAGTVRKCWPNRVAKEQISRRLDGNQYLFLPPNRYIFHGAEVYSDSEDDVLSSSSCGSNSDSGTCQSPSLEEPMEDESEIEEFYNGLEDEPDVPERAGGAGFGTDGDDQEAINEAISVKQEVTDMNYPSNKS

In all, about 3,200 compounds were measured (“TSA(with NAD+) / Primary screening (TSA) / delta Tm (K)”: median about -0.04, highest 2% from about 0.37 on). Some of the results follow.

The experiment addresses NAD-dependent deacetylase Sirtuin 1 (human, UniProt Q96EB6). Description: primary screen, delta tm. The note with it: 10 µM. Set-up: single well (n = 1, as 'the same TSA').
With `Cc1ccc(C2CC(c3ccc4c(c3)OCO4)=NN2S(C)(=O)=O)cc1` (stereo not drawn), the “TSA(with NAD+) / Primary screening (TSA) / delta Tm (K)” value was -0.11 K. The result for `Cc1nc(S)sc1CC(=O)NC1CCCCC1C` (stereo not drawn) reads -0.01 K. Consider `CN(CC1OCCc2ccccc21)C(=O)c1cccc(-n2ccnn2)c1` (stereo not drawn), for which the “TSA(with NAD+) / Primary screening (TSA) / delta Tm (K)” value is -0.01 K. The result for `NCCSCC(=O)O` reads 0.03 K; that for `Cc1noc(-c2cccc(NC(=O)c3ccccc3-c3ncc(-c4ccccc4)o3)c2)n1`, -0.06 K; that for `COCC(C)Nc1ncnc2ccsc12` (stereo not drawn), -0.03 K. Then `Cc1cc(NC(=O)CSc2nnc(-c3c[nH]c4ccccc34)n2Cc2ccco2)no1`, with 0.03 K; and `COc1ccccc1CNC(=O)/C(=C/c1ccccc1)c1ccccc1`, with -0.09 K; and `O=C(Nc1ccc2nc[nH]c(=O)c2c1)c1ccn(-c2ccccc2)n1`, with 0.12 K.

For the compound `O=C(CC(F)(F)F)Nc1cccc(F)c1`, the “TSA(with NAD+) / Primary screening (TSA) / delta Tm (K)” value was -0.08 K. The result for `CNc1cc(C)nc2c(-c3ccccc3)c(C(F)(F)F)nn12` reads -0.12 K. The result for `CCOC(=O)c1ccccc1NC(=O)COc1ccc(C(N)=O)cc1` reads -0.22 K.

As to `COc1ccc2c(C=C3C(=O)N(C)C(=O)N(C)C3=O)cccc2c1`, the “TSA(with NAD+) / Primary screening (TSA) / delta Tm (K)” value turned out to be 0.16 K. The result for `Cc1c(NC(=O)c2cnc3ccccc3n2)c(=O)n(-c2ccccc2)n1C` reads -0.03 K; that for `CCc1cc2c(N3CCC(C(N)=O)CC3)nc(C(C)C)nc2s1`, 0.01 K. Then `CCOc1ccc2[nH]c(SCC(=O)N3CCCC(C(N)=O)C3)nc2c1` (stereo not drawn), with -0.11 K. The result for `OC(CCc1ccccc1)CN1CCN(c2cncc3ccccc23)CC1` (stereo not drawn) reads 0.06 K. As for `Cc1cc(=O)c2c(C)nn(-c3cccc(Cl)c3)c2[nH]1`, the “TSA(with NAD+) / Primary screening (TSA) / delta Tm (K)” value came out at 0.03 K.

In the case of `Cc1cc(C(=O)COC(=O)C23CC4CC(CC(O)(C4)C2)C3)c(C)n1-c1ccc2c(c1)OCO2`, the “TSA(with NAD+) / Primary screening (TSA) / delta Tm (K)” value is given as -0.02 K. Then `COc1cc(CN(C)C(=O)c2ccc(CS(C)(=O)=O)cc2)ccc1OCc1ccccc1`, with -0.12 K. The result for `O=S(=O)(NC1CCCNC1)c1ccccc1Br` (stereo not drawn) reads -0.09 K; that for `CO/N=C(/C)c1ccc2[nH]c(=O)[nH]c2c1`, 0.07 K; that for `COc1ccc(CCNC(=O)COC(=O)CCc2ccc(S(=O)(=O)N3CCCCC3)cc2)cc1OC`, -0.03 K. Then `C/C(=N/Nc1cc(C(=O)O)ccc1Cl)c1ccc2ccccc2c1`, with 0.16 K.

With `NCCOCCCO`, the “TSA(with NAD+) / Primary screening (TSA) / delta Tm (K)” value is -0.13 K. `Cc1ccc(N(C)S(=O)(=O)c2cccc(C(=O)Nc3ccc(C(N)=O)cc3)c2)cc1`: the “TSA(with NAD+) / Primary screening (TSA) / delta Tm (K)” value was 0.46 K. The result for `O=C(N1CCc2ccccc2CC1)N1CC2CCCN2Cc2ccccc21` (stereo not drawn) reads -0.13 K; that for `Cc1cc(/C=N/NC(C)(C)C)c(C)n1-c1cc(S(=O)(=O)N2CCOCC2)ccc1N1CCCC1`, -0.03 K; that for `O=C(c1ccc(O)cc1)C1CCN(c2ncnc3c2oc2ccccc23)CC1`, -0.01 K.

As to `CC(=O)N1CCCc2cc(S(=O)(=O)Nc3cccc4c3CCCC4)ccc21`, the “TSA(with NAD+) / Primary screening (TSA) / delta Tm (K)” value is -0.08 K. The result for `CCCCOC(=O)c1ccc(NC(=O)COC(=O)CNC(=O)C23CC4CC(CC(C4)C2)C3)cc1` reads 0.32 K. Take `Cc1ccccc1NC(=O)COC(=O)c1ccccc1SCC(=O)NC12CC3CC(CC(C3)C1)C2`: the “TSA(with NAD+) / Primary screening (TSA) / delta Tm (K)” value was 0.17 K. Then `CCOC(=O)Nc1cccc(C(=O)NCc2ccc3c(c2)OCO3)c1`, with -0.12 K; and `CC(N)CF` (stereo not drawn), with -0.03 K. Then `Cc1ccc(-c2nnc(S)n2CCC(=O)N2CCN(Cc3nc(-c4cccs4)no3)CC2)cc1`, with 0.16 K; and `O=C(Nc1cccc(S(=O)(=O)NCc2ccco2)c1)c1cn(-c2ccccc2)nc1-c1ccccc1`, with 0.21 K. As to `Cc1ccc(N(CC(=O)NC23CC4CC(CC(C4)C2)C3)S(=O)(=O)c2ccc3c(c2)OCCO3)cc1`, the “TSA(with NAD+) / Primary screening (TSA) / delta Tm (K)” value was -0.11 K. As to `COc1ccc(OC)c(CN(CC(=O)Nc2ccc(C(N)=O)cc2)C2CC2)c1`, the “TSA(with NAD+) / Primary screening (TSA) / delta Tm (K)” value is given as 0.06 K. The result for `N#CCn1c(COC(=O)CO/N=C2\c3ccccc3C3C=CC=CC23)nc2ccccc2c1=O` (stereo not drawn) reads 0.06 K; that for `O=C(Nc1ccc(Cl)cn1)C1CCN(c2nc(C3CC3)nc3sc4c(c23)CCCC4)CC1`, -0.13 K; that for `O=C(OCC(=O)C12CC3CC(CC(C3)C1)C2)[C@H](Cc1ccccc1)N1C(=O)c2ccccc2C1=O`, -0.11 K. Then `COS(=O)(=O)OC`, with -0.04 K; and `COc1ccc(SC(C)C(N)=O)cc1` (stereo not drawn), with 0.03 K. Then `NC(=O)C1CCN(C(=O)c2c[nH]c3cc(Br)c(Br)cc23)CC1`, with 0.06 K; and `COc1cc(CN(C)C(=O)c2ccc(-c3ccc(C(C)=O)cc3)o2)ccc1OCc1ccccc1`, with -0.18 K. In the case of `O=C(O)CN1CCN(Cc2ccccc2)C2(CCCCC2)C1`, the “TSA(with NAD+) / Primary screening (TSA) / delta Tm (K)” value is listed as -0.02 K. The result for `CC1CC(C)n2nccc2N1C(=O)Cc1csc(-c2ccc(C(F)(F)F)cc2)n1` (stereo not drawn) reads -0.12 K; that for `CN1CCN(c2ncnc3ccsc23)CC1`, -0.13 K; that for `Cc1cc(CCNc2ccc3nnnn3n2)c(C)n1-c1ccccc1`, 0.26 K. The result for `CC1CCCC(C)N1NC(=O)CCCN1C(=O)c2ccccc2C1=O` (stereo not drawn) reads -0.33 K. Turning to `O=C(Cc1c[nH]c2ccccc12)NCC1CCCN(Cc2cccs2)C1` (stereo not drawn), the “TSA(with NAD+) / Primary screening (TSA) / delta Tm (K)” value is reported as -0.09 K. The result for `NC(=O)C1CCN(C(=O)c2cc3cc(Br)ccc3[nH]2)C1` (stereo not drawn) reads -0.01 K.

For the compound `CC(OC(=O)c1cccc(S(=O)(=O)NCc2ccco2)c1)C(=O)c1ccc2c(c1)CCC2` (stereo not drawn), the “TSA(with NAD+) / Primary screening (TSA) / delta Tm (K)” value is given as -0.01 K.

On to `COC[C@H](C)N`, for which the “TSA(with NAD+) / Primary screening (TSA) / delta Tm (K)” value was -0.01 K. Then `COC(=O)c1ccc2c(=O)n(CCc3ccccc3)c(SCC(=O)N(C3CCCCC3)C3CCS(=O)(=O)C3)nc2c1` (stereo not drawn), with 0.16 K; and `O=C(CCc1c[nH]c2ccccc12)NNC(=O)CCN1CCN(c2ccccc2)CC1`, with 0.06 K; and `O=C(/C=C/c1ccco1)C1=C(O)C(=O)N(CCCN2CCOCC2)C1c1ccco1` (stereo not drawn), with -0.08 K. As for `Cc1ccc(CNC(=O)C2CSCN2)c(O)c1` (stereo not drawn), the “TSA(with NAD+) / Primary screening (TSA) / delta Tm (K)” value is given as -0.05 K. The result for `COc1ccc(C2C(C(=O)/C=C/c3ccco3)=C(O)C(=O)N2CCCN2CCOCC2)cc1OC` (stereo not drawn) reads 0.07 K; that for `Cc1csc(=O)n1CCC(=O)N1CCC(CC(N)=O)CC1`, 0.06 K; that for `NC(=O)c1cccc(NC(=O)c2cc3c(s2)-c2ccccc2CC3)c1`, 0.88 K.

For the compound `N#Cc1cc(Br)ccc1NCC1(CCO)CCOC1` (stereo not drawn), the “TSA(with NAD+) / Primary screening (TSA) / delta Tm (K)” value is on record as -0.13 K.

Turning to `CCNc1ncnc2c1cnn2-c1ccccc1`, the “TSA(with NAD+) / Primary screening (TSA) / delta Tm (K)” value is recorded as 0.25 K.

As for `O=c1cc(NCC2(c3ccccc3)CCC2)nc2ccccn12`, the “TSA(with NAD+) / Primary screening (TSA) / delta Tm (K)” value is on record as -0.11 K.

As for `O=C(O)Cn1c(S)nc2ccccc2c1=O`, the “TSA(with NAD+) / Primary screening (TSA) / delta Tm (K)” value was -0.15 K. The result for `COc1ccc(C2C(C(=O)c3ccc(C)cc3)=C(O)C(=O)N2CCCN2CCOCC2)cc1OC` (stereo not drawn) reads 0.02 K; that for `O=C(CSc1nnc(-c2cccnc2)o1)N(Cc1ccccc1)c1nc2c(s1)CCCC2`, -0.08 K. The result for `COc1cccc(CC(=O)N2CCC(O)(C(F)(F)F)C2)c1` (stereo not drawn) reads -0.11 K.

As to `O=C(CCc1nc2ccccc2s1)Nc1cccc(S(=O)(=O)NCc2ccco2)c1`, the “TSA(with NAD+) / Primary screening (TSA) / delta Tm (K)” value was -0.06 K. Then `COc1cc(CN(C)C(=O)c2ccc3c(c2)C(=O)N(C)C3=O)ccc1OCc1ccccc1`, with -0.11 K.

For the compound `COc1ccccc1C(=O)NC(CCSC)C(=O)Nc1ccc(C23CC4CC(CC(C4)C2)C3)cc1` (stereo not drawn), the “TSA(with NAD+) / Primary screening (TSA) / delta Tm (K)” value was -0.11 K. Then `O=C(C1=C(O)C(=O)N(CCCN2CCOCC2)C1c1ccco1)c1ccc(F)cc1` (stereo not drawn), with -0.05 K; and `COc1ccc(OC)c(C2C(C(=O)/C=C/c3ccco3)=C(O)C(=O)N2CCCN2CCOCC2)c1` (stereo not drawn), with -0.19 K; and `COc1ccc(S(=O)(=O)Nc2ccc(C(=O)NCC(=O)NCc3nnc4ccccn34)cc2)cc1`, with -0.03 K. Then `Cc1ccc(C(=O)C2=C(O)C(=O)N(CCCN3CCOCC3)C2c2ccccn2)o1` (stereo not drawn), with -0.14 K.

As to `Cc1cc(C#N)ccc1S(=O)(=O)N1CCC(N)C1` (stereo not drawn), the “TSA(with NAD+) / Primary screening (TSA) / delta Tm (K)” value is listed as 0.05 K. Then `O=C1/C(=C\c2ccc(Br)cc2F)COc2ccccc21`, with -0.18 K; and `O=c1cc(N2CCC(C(O)c3ccccc3)CC2)nc2ccccn12` (stereo not drawn), with -0.01 K.

Consider `Oc1ccc(/C=N/c2cccc3cnccc23)c(O)c1O`, for which the “TSA(with NAD+) / Primary screening (TSA) / delta Tm (K)” value is -0.14 K.

Consider `O=C(CN1C(=O)NC2(CCc3ccccc32)C1=O)NC(c1ccccc1)c1ccc(Cl)cc1` (stereo not drawn), for which the “TSA(with NAD+) / Primary screening (TSA) / delta Tm (K)” value stood at 0.01 K. Then `CN(CCCNC(=O)c1ccc2ccccc2c1)Cc1ccccc1`, with -0.02 K. In the case of `O=[N+]([O-])c1cnn(-c2ncnc3c2cnn3-c2ccccc2)c1`, the “TSA(with NAD+) / Primary screening (TSA) / delta Tm (K)” value is on record as -0.06 K.

`O=C(COC(=O)CON=C1c2ccccc2-c2ccccc21)Nc1ccc2c(c1)OCO2`: the “TSA(with NAD+) / Primary screening (TSA) / delta Tm (K)” value is reported as 0.36 K. The result for `CC1CC(=O)Nc2ccccc2N1C(=O)c1ccc2ccccc2c1` (stereo not drawn) reads 0.06 K.

Regarding `Cn1ncc2c(N3CCN(Cc4ccc5c(c4)CCO5)CC3)ncnc21`, the “TSA(with NAD+) / Primary screening (TSA) / delta Tm (K)” value is -0.13 K. The result for `CCC(C)(N)CN` (stereo not drawn) reads -0.03 K; that for `CC1CC(C(=O)Nc2ncc(C(N)=O)s2)CCO1` (stereo not drawn), -0.02 K. Then `CCOc1ccc(/C=C(/C#N)C(=O)c2c[nH]c3cc(F)ccc23)cc1`, with -0.03 K; and `COCCNc1nnc(SCc2cnc(-c3ccccc3)s2)s1`, with -0.04 K; and `NCC(N)C1CCC1` (stereo not drawn), with -0.14 K. Then `CC(C)C(OC(=O)Cc1coc2cc(O)ccc12)C(=O)NC(N)=O` (stereo not drawn), with -0.05 K; and `NCCCC(N)C(=O)O` (stereo not drawn), with -0.08 K; and `O=C(Nc1ccc(OC(F)F)c(Cc2ccccc2)c1)C1=COCCO1`, with -0.08 K.
